According to PMC9888277:
No constants are given. Whether binding was seen depends on the method and setting. Binding seen in cells or lysates may run through a third protein. Some entries that bind do so weakly or less than the wild type.

Amino acid sequences for entries named in this document (tags omitted). A change or cut given only in a name is not applied to a line headed by its entry. Chains listed by the source or under a name are the forms on record and can include a tag or linker.
UniProt O15037: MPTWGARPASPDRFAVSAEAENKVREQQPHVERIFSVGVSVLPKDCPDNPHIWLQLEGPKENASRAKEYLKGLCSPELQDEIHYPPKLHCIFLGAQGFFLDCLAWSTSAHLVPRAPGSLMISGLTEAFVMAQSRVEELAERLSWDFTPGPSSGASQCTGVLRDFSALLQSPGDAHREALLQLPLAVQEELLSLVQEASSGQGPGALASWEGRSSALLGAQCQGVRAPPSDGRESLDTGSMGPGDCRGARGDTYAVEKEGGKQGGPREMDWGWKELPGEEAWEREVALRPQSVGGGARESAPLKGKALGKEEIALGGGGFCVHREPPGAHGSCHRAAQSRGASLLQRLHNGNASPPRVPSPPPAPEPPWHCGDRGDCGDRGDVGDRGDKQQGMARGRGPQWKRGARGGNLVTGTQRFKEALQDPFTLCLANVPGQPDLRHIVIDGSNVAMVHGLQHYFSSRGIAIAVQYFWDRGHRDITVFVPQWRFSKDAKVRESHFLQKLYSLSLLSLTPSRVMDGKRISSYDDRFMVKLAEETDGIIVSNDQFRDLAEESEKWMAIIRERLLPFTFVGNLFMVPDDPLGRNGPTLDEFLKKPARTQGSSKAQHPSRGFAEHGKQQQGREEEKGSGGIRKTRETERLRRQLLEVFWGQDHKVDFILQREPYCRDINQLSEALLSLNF
ZAP-S (zinc finger antiviral protein, short isoform) (Q7Z2W4-2, form named): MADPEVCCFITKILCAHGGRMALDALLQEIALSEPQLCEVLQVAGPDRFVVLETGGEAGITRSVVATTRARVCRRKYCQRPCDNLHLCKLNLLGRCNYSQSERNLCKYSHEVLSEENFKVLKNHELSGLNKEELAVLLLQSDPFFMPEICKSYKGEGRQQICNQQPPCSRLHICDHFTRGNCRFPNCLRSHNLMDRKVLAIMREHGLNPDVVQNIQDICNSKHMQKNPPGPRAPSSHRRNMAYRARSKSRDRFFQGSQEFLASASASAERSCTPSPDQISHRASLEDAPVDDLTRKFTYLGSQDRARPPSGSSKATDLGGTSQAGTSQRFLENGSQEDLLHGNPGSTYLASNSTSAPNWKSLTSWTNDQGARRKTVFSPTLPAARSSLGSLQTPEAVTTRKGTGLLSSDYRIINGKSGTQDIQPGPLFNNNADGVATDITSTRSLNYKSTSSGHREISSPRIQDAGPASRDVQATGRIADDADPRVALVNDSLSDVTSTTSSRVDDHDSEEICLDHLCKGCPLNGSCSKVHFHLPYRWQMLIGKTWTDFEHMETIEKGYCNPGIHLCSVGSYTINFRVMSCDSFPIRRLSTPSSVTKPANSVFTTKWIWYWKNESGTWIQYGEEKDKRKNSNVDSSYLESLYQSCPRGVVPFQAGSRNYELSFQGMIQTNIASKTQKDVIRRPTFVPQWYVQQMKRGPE

Target: wild-type KHNYN-GFP (human) (UniProt O15037)
Assay: co-IP; anti-GFP antibody and Protein G Dynabeads on post-nuclear lysates of HeLa cells stably expressing KHNYN-GFP or mutants; lysis in 0.5% NP-40, 150 mM KCl, 10 mM HEPES pH 7.5, 3 mM MgCl2; 4°C; blotted for GFP and endogenous ZAP; the paper notes that the interaction could occur post-lysis

Substance | binding
ZAP-L (zinc finger antiviral protein, long isoform) (from UniProt Q7Z2W4-1 1-902) | binds
ZAP-S (zinc finger antiviral protein, short isoform) (from UniProt Q7Z2W4-2 1-699) | binds weakly
